Measurements: publication doi:10.1101/2025.03.04.641389

Test system: SmExo (CBASS-associated DEDDh Exo) (Serratia marcescens)
Experiment: EMSA
Details: 2 uM Exo, with and/or without 2 uM 3',2'-cGAMP

GCATAAACCTCATAATTAAAAATTTATCTAAGTCACTAACTC [42-nt ssDNA]
binding result: no binding

For at least one entry, the source does not settle the construct or the ends of the probe. A negative result means that nothing was seen under these conditions. At least one verdict was read from the data and is not stated in words by the source.
